Laboratory results: paper PMC8947033
No constants are given. Whether binding was seen depends on the method and setting. Binding seen in cells or lysates may run through a third protein. These calls come from enrichment with a bait or labelling near it, and not all partners need be listed.

The chains behind the UniProt entries cited, without tags or fusion partners.
UniProt Q9UKV8: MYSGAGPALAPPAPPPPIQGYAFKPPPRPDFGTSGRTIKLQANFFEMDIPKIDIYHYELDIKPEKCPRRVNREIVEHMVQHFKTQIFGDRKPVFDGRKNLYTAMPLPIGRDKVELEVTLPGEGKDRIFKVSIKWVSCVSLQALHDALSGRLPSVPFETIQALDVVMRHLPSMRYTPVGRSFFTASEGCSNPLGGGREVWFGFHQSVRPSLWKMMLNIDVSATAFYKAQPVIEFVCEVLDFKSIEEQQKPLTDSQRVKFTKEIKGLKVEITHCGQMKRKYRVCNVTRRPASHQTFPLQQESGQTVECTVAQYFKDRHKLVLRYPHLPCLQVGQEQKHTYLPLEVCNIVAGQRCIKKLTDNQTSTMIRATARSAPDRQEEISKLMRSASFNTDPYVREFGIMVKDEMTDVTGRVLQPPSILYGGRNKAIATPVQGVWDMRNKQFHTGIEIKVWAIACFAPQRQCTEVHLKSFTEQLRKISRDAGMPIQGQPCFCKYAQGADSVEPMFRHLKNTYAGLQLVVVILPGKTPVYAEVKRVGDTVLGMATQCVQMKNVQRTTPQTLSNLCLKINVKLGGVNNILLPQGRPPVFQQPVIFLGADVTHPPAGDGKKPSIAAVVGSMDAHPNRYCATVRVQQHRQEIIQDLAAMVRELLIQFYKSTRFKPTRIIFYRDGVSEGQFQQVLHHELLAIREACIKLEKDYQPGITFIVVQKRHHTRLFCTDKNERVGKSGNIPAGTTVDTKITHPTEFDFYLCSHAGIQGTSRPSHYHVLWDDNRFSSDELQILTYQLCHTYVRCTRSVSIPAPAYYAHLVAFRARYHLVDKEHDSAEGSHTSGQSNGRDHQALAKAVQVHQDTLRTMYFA

Target: FLAG-hAGO2 (human Argonaute2) (human) (UniProt Q9UKV8)
Assay: affinity purification with mass spectrometry; anti-FLAG M2 agarose IP from lysates of SH-SY5Y cells stably expressing FLAG-hAGO2 or FLAG vector (0.5% NP40, 150 mM KCl lysis buffer, 4 h at 4 °C); elution with FLAG peptide; SDS-PAGE, Coomassie bands excised and identified by LC-MS/MS

binding: binds
B1: FKBP5 (protein, UniProt Q13451 1-457)
chain: MTTDEGAKNNEESPTATVAEQGEDITSKKDRGVLKIVKRVGNGEETPMIGDKVYVHYKGKLSNGKKFDSSHDRNEPFVFSLGKGQVIKAWDIGVATMKKGEICHLLCKPEYAYGSAGSLPKIPSNATLFFEIELLDFKGEDLFEDGGIIRRTKRKGEGYSNPNEGATVEIHLEGRCGGRMFDCRDVAFTVGEGEDHDIPIGIDKALEKMQREEQCILYLGPRYGFGEAGKPKFGIEPNAELIYEVTLKSFEKAKESWEMDTKEKLEQAAIVKEKGTVYFKGGKYMQAVIQYGKIVSWLEMEYGLSEKESKASESFLLAAFLNLAMCYLKLREYTKAVECCDKALGLDSANEKGLYRRGEAQLLMNEFESAKGDFEKVLEVNPQNKAARLQISMCQKKAKEHNERDRRIYANMFKKFAEQDAKEEANKAMGKKTSEGVTNEKGTDSQAMEEEKPEGHV
